PubChem BioAssay AID2685 (National Center for Advancing Translational Sciences (NCATS), 2010)
This is one part of the list. These are further read-outs of the screen, such as a control signal, another cell line or another target. No call is given for them. The list favours compounds with an active or inconclusive main result. Potencies come from curve fits of mixed quality, noted in brackets.

Test: qHTS Assay for Lipid Storage Modulators in Drosophila S3 Cells;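 for cell number change: cells counted by Cell Tracker Red CMTPX staining in the red channel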
Details: BODIPY lipid droplet fluorescence, 18-24 h; for cell number change: measured here: cell count max response, cells fed with added oleic acid
In short: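 Laser-scanning cytometry quantifies lipid droplet accumulation (500–530 nm total intensity; droplet/cell object ratio) in oleic acid-fed (400 uM added) Drosophila S3 cells treated with a concentration series. 20 uM Triacsin C defined 100% inhibition.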

[1] = measured here: cell number channel AC50, cells fed with added oleic acid
[2] = measured here: lipid fluorescence (Fed channel) AC50, cells fed with added oleic acid

| Compound | cell number change [%] | AC50 [1] | AC50 [2] |
| --- | --- | --- | --- |
| CC1C/C(=N\NC(=O)c2cccnc2)CC(C)(C)C1 (stereo not given) | -20.4 | 0.82 µM [falling, full curve, poor fit] | – |
| N#Cc1ccc(CSC2=NCCN2)cc1 | -57.7 | 29.1 µM [falling, single point] | – |
| CCOc1cc(C(=O)Nc2ccc3c(c2)OCO3)ccc1OC(F)F | 8.55 | 0.411 µM [rising, full curve] | 1.3 µM [rising, partial curve] |
| Cn1nc(-c2ccc(Cl)cc2)c2cc(C(=O)NCCCN3CCCC3)sc21 | 30.2 | 20.6 µM [rising, single point] | 29.1 µM [rising, single point] |
| CC(C(=O)Nc1ccccc1)N1CCN(c2ccccn2)CC1 (stereo not given) | 7.09 | – | – |
| COc1cccc(CNC(=O)CN(C)S(=O)(=O)c2cnc[nH]2)c1 | -1.76 | – | 0.206 µM [falling, full curve] |
| COc1ccc(/C(C)=N/NC(=O)Cc2c(C)nc(C)[nH]c2=O)cc1 | 4.44 | – | 25.9 µM [rising, partial curve, poor fit] |
| Cc1nn(C)cc1CNC(=O)C1C2CCC(C2)C1C(=O)O (stereo not given) | -23.7 | – | 20.6 µM [falling, single point] |
| Fc1cccc(NCc2cn3ccccc3n2)c1 | -33 | 29.1 µM [falling, single point] | – |
| CC1=Nc2cc(C(=O)N3CCCC3)ccc2Sc2c(C)ccc(C)c21 | 4.59 | – | 29.1 µM [rising, single point] |
| COc1cc(CCC(=O)NCc2ccc(S(N)(=O)=O)cc2)cc(OC)c1OC | 2.13 | – | 13 µM [falling, partial curve] |
| O=C(CC1Sc2ccccc2NC1=O)Nc1ccccc1[N+](=O)[O-] (stereo not given) | -0.314 | – | – |
| NC(=O)C1CCN(C(=O)CSCc2ccccc2Cl)CC1 | 8.27 | – | 0.103 µM [falling, full curve, poor fit] |
| O=C(NC(=O)c1ccccc1)NC1(C(F)(F)F)OCCO1 | -3.23 | 0.231 µM [falling, full curve] | – |
| Cc1ccc(S(=O)(=O)N2CC(=NN=C(N)N)C2)cc1 | 10.3 | – | – |
| C=CCOc1ccc2c(c1)c(=O)cc(C(=O)O)n2CC | -0.264 | 6.51 µM [falling, single point] | 6.51 µM [falling, single point] |
| Cc1cc(Cl)c(C)c(S(=O)(=O)Oc2ccccc2NC(=O)CCC(=O)O)c1Cl | -18.1 | – | 32.6 µM [rising, single point] |
| COc1ccc(C(=O)NC2CCCc3ccccc32)c(OC)c1OC (stereo not given) | 2.38 | – | 29.1 µM [rising, single point] |
| CCN(CC)S(=O)(=O)c1ccc(C(=O)NCCOC(=O)c2ccc(F)cc2F)cc1 | – | – | 5.8 µM [falling, full curve] |
| CC1CCCN(C(=S)SCC(=O)O)C1 (stereo not given) | – | 0.651 µM [falling, single point] | – |
| C/C=C(\C)C(=O)NCCN1C2=NC[C@@H](C)N2C[C@H]1Cc1ccc(O)cc1 | 1.23 | – | 2.59 µM [falling, full curve, poor fit] |

| Compound | cell number change [%] | AC50 [1] | AC50 [2] |
| --- | --- | --- | --- |
| O=C(c1ccc(F)cc1F)N1CCCC(c2nc(-c3ccc(F)cc3)no2)C1 (stereo not given) | – | – | 0.00461 µM [falling, full curve, poor fit] |
| Cc1onc(-c2c(F)cccc2Cl)c1C(=O)NCCO | -37.1 | 5.8 µM [falling, partial curve, poor fit] | – |
| O=C(COc1ccc(Cl)cc1Br)NCC(c1ccco1)N1CCCC1 (stereo not given) | -15 | – | 9.2 µM [rising, partial curve, poor fit] |
| Cc1ccc(O)c(CNCCNCc2cc(C)ccc2O)c1 | 5.12 | – | 0.731 µM [falling, partial curve, poor fit] |
| Cc1cc(OCC(=O)NNC(=O)c2cnccn2)cc(C)c1Cl | -11 | – | 29.1 µM [rising, single point] |
| CCN(CC(=O)Nc1c(F)cccc1F)C(=O)c1ccc(Sc2nncn2C)c([N+](=O)[O-])c1 | -25.3 | – | – |
| COc1ccc(CC(NC(C)=O)C(=O)NC2CCN(C(=O)Nc3ccccc3C)CC2)cc1OC (stereo not given) | -10.3 | – | 6.51 µM [rising, single point] |
| CCN(CC)c1ccc(CNC23CN4CN(CN(C4)C2)C3)cc1 | – | – | 6.51 µM [falling, single point] |
| CCn1nc(C)cc1C(=O)Sc1cccc(Cl)c1 | -20.1 | – | 0.461 µM [falling, full curve] |
| O=C(c1ccco1)N1CCN(Cc2cc(=O)c(OCc3ccccc3Cl)co2)CC1 | -47.8 | 10.3 µM [falling, partial curve, poor fit] | – |
| CCN(CC(=O)Nc1ccccc1C(F)(F)F)C(=O)c1ccc2[nH]c3c(c2c1)CC(C)CC3 (stereo not given) | – | – | 0.13 µM [rising, full curve, poor fit] |
| OCCCNc1c2ccccc2nc2ccccc12 | -24.2 | – | 29.1 µM [falling, partial curve] |
| CCn1c(-c2cccnc2Cl)nc2ccccc21 | 62.1 | 8.2 µM [rising, partial curve] | – |
| Cc1nn(-c2ccccc2)c(Cl)c1/C=N/NC(=O)c1ccnn1C | 48.2 | 29.1 µM [rising, single point] | – |
| COc1ccc(C2C3=C(CC(C)(C)CC3=O)Oc3ncn(Cc4ccco4)c(=N)c32)cc1 (stereo not given) | 3.74 | – | 7.31 µM [rising, partial curve] |
| Cc1cc(Cl)ccc1NC(=O)c1ccc2c(c1)OCO2 | -9.79 | – | 29.1 µM [falling, single point] |
| CSc1nc(N)c2c3c(sc2n1)COC(C(C)C)C3 (stereo not given) | 82.1 | 29.1 µM [rising, single point] | – |
| CSc1nc(=O)n(-c2ccccc2)c(C)c1C(C)=O | 2.69 | – | – |
| Cc1ccc(CNC(=O)COC(=O)c2cc(C)oc2C)cc1 | – | – | 6.51 µM [rising, partial curve, poor fit] |
| O=C(CSc1nnc(Cc2ccccc2)n1-c1ccc(Cl)cc1)N1CCOCC1 | -52.5 | 20.6 µM [falling, partial curve] | 1.46 µM [falling, full curve, poor fit] |

Compounds listed so far that have two or more sulfur atoms, in the order listed:

| Compound | cell number change [%] | AC50 [1] | AC50 [2] |
| --- | --- | --- | --- |
| CC1CCCN(C(=S)SCC(=O)O)C1 (stereo not given) | – | 0.651 µM [falling, single point] | – |
| CSc1nc(N)c2c3c(sc2n1)COC(C(C)C)C3 (stereo not given) | 82.1 | 29.1 µM [rising, single point] | – |
